Source: PubChem BioAssay AID540256 (National Center for Advancing Translational Sciences (NCATS), 2011)
In all, about 300,000 compounds went through this assay and about 3,700 (1.2%) were called active. Inconclusive means that the source gave no clear call. Such entries were picked first, then a sample of the others. The call rests on the fitted dose curve; tested in HEK293 cells. Potencies beside an inconclusive call are fits to weak or partial responses and may not hold up.

experiment: qHTS for Inhibitors of binding or entry into cells for Lassa Virus; conditions: Lassa virus pseudotype entry inhibition, cell reporter; activity change, negative = inhibition: at 37.9 µM (top of the series) unless noted; further: nearly all actives have a fitted effect of over 50% in size
On the % scale 0 is the no-effect control and ±100 the full control effect; potency means the concentration at half of the fitted maximal effect.

Question: With `CCC(C(=O)OCC(=O)N1CCN(S(=O)(=O)c2ccc(C)cc2C)CC1)c1ccccc1` (configuration not stated) as the compound, how does the Potency read?
Answer: inconclusive: 2.82 µM [inhibitor, partial curve, poor fit]

Question: With `CCc1ccccc1-n1c(SCC(=O)N2CCCC2)nnc1-c1ccccn1` as the compound, how does the Potency read?
Answer: inconclusive: 1.26 µM [activator, single point]

Question: Which “activity change, negative = inhibition” value does the source give for `CC(=O)N1c2ccccc2C(=O)OC1c1cccnc1` (configuration not stated) here?
Answer: inactive: 0.483%

Question: For `CN(C)CCCNc1oc(-c2ccccc2Cl)nc1S(=O)(=O)c1ccc(F)cc1`, which Potency is on record?
Answer: inconclusive: 25.1 µM [inhibitor, single point]

Question: For `O=C(OCCCCN1C(=O)c2ccccc2C1=O)c1n[nH]c2ccccc12`, which Potency is on record?
Answer: inconclusive: 16.4 µM [activator, partial curve]

Question: Which “activity change, negative = inhibition” value does the source give for `O=C(COc1ccccc1Cl)OCc1cc(=O)n2nc(C3CCCCC3)sc2n1` here?
Answer: inactive: -10.3% [at 46.1 µM]

Question: Which “activity change, negative = inhibition” value does the source give for `CCCCOc1ccc(C(=O)Nc2ccc3oc(-c4cccnc4)nc3c2)cc1` here?
Answer: inactive: -12.7% [at 46.1 µM]

Question: With `COc1ccccc1S(=O)(=O)Nc1cc(C)nn1-c1ccc(C)cc1` as the compound, how does the “activity change, negative = inhibition” value read?
Answer: inactive: 2.02%

Question: For `CCCCn1c(SCC(=O)OCC)nc2c(sc(=S)n2-c2ccccc2OC)c1=O`, which “activity change, negative = inhibition” value is on record?
Answer: inactive: 7.77%

Question: With `COc1ccc2c(COC(=O)CC3Sc4ccccc4NC3=O)cc(=O)oc2c1` (configuration not stated) as the compound, how does the Potency read?
Answer: inconclusive: 1.03 µM [activator, full curve, poor fit]

Question: With `COc1ccc(NC(=O)CN(C)C(=O)c2cc(-c3ccc(C)o3)nc3ccccc23)cc1` as the compound, how does the Potency read?
Answer: inconclusive: 35.5 µM [inhibitor, single point]

Question: Which Potency does the source give for `COc1cc(/C=N/NC(=O)/C(=C\c2ccc3c(c2)OCO3)NC(=O)c2ccccc2)ccc1O` here?
Answer: inconclusive: 10 µM [inhibitor, partial curve, poor fit]

Question: With `c1csc(Cc2nn3c(-c4n[nH]c5c4CCC5)nnc3s2)c1` as the compound, how does the “activity change, negative = inhibition” value read?
Answer: inactive: -20.9%

Question: Which “activity change, negative = inhibition” value does the source give for `N#C/C(=C\c1ccc(F)c(F)c1)C(=O)NC1CCCCC1` here?
Answer: inactive: -1.47%

Question: Which Potency does the source give for `O=C(Cn1cnc2ccccc21)N/N=C/c1cccc([N+](=O)[O-])c1` here?
Answer: inconclusive: 0.355 µM [activator, full curve, poor fit]

Question: With `CC(C)C(Nc1ncnc2c1oc1ccccc12)C(=O)O` (configuration not stated) as the compound, how does the Potency read?
Answer: inconclusive: 1.78 µM [activator, partial curve, poor fit]

Question: With `CC(=O)c1c(C)[nH]c(C(=O)N2CCN(c3cc(Cl)ccc3C)CC2)c1C` as the compound, how does the Potency read?
Answer: active: 6.51 µM

Question: Which Potency does the source give for `O=C(NN=Cc1ccccc1O)C(O)(c1ccccc1)c1ccccc1` here?
Answer: inconclusive: 0.1 µM [inhibitor, full curve, poor fit]

Question: With `O=c1c2ccccc2nc(/C=C\c2ccccc2[N+](=O)[O-])n1-c1ccccc1O` as the compound, how does the Potency read?
Answer: active: 7.94 µM

Question: Which Potency does the source give for `CCN(CC(=O)Nc1cccc(S(=O)(=O)N(C)c2ccccc2)c1)Cc1cccs1` here?
Answer: inconclusive: 15.8 µM [inhibitor, partial curve, poor fit]

Question: Which Potency does the source give for `CCC(C)c1ccc(S(=O)(=O)N2CCN3CCCC3C2)cc1` (configuration not stated) here?
Answer: inconclusive: 15.8 µM [inhibitor, single point]

Question: For `Cc1csc(NC(=O)C2CCCC2)n1`, which “activity change, negative = inhibition” value is on record?
Answer: inactive: 13.6%

Question: Which Potency does the source give for `Clc1ccc2c(c1)C(N1CCNCC1)=Nc1ccccc1O2` here?
Answer: inconclusive: 16.4 µM [inhibitor, partial curve]

Question: For `CCOC(=O)c1cccc(NC(=O)c2cnc3ccccc3n2)c1`, which “activity change, negative = inhibition” value is on record?
Answer: inactive: -27.2%

Question: Which “activity change, negative = inhibition” value does the source give for `COc1ccccc1NC(=O)C(C)Sc1nnc2ccc3ccccc3n12` (configuration not stated) here?
Answer: inactive: 15.7% [at 46.1 µM]

Question: For `O=c1c2ccccc2cnn1-c1ccc(Br)cc1`, which Potency is on record?
Answer: inconclusive: 22.4 µM [inhibitor, single point]

Question: With `Cn1nc(N)nc1N1CCN(c2ccc(F)cc2)CC1` as the compound, how does the Potency read?
Answer: inconclusive: 0.631 µM [inhibitor, partial curve, poor fit]

Question: Which Potency does the source give for `COC(=O)CCc1c(C)nn(-c2ccccc2)c1C` here?
Answer: inconclusive: 0.501 µM [activator, full curve, poor fit]

Question: Which Potency does the source give for `OCCN(CCO)c1ccc(C(c2ccccc2Cl)c2ccc(N(CCO)CCO)cc2Cl)c(Cl)c1` here?
Answer: active: 11.2 µM

Question: Which “activity change, negative = inhibition” value does the source give for `COc1ccc2c(c1OC)C(=O)N(c1ccc(F)cc1)C2` here?
Answer: inactive: -20% [at 46.1 µM]

Question: For `COc1ccc(NS(=O)(=O)c2cc(NC(=O)C3CC3)ccc2N2CCOCC2)cc1`, which Potency is on record?
Answer: inconclusive: 6.31 µM [inhibitor, single point]

Question: Which Potency does the source give for `Cc1cccc(N2CCN(C(=O)C3CCCN(S(=O)(=O)c4ccc5c(c4)oc(=O)n5C)C3)CC2)c1C` (configuration not stated) here?
Answer: inconclusive: 10 µM [inhibitor, partial curve, poor fit]

Question: For `CCC(C)N1CC(O)=C(c2nc3ccccc3[nH]2)C1=N` (configuration not stated), which Potency is on record?
Answer: inconclusive: 2.06 µM [activator, full curve, poor fit]

Question: Which “activity change, negative = inhibition” value does the source give for `CN(C)C(=O)c1ccc(NC(=O)c2sccc2-c2ccccc2)cc1` here?
Answer: inactive: -0.106% [at 46.1 µM]

Question: With `Cc1ccccc1-n1c(O)c(/C=C2/C(c3ccccc3)=Nc3ccccc32)c(=O)[nH]c1=O` as the compound, how does the Potency read?
Answer: inconclusive: 3.16 µM [inhibitor, single point]

Question: For `Cc1ccc2nc(SCc3ccccc3)c(C=O)c(=O)n2c1`, which Potency is on record?
Answer: inconclusive: 29.1 µM [inhibitor, partial curve, poor fit]

Question: Which “activity change, negative = inhibition” value does the source give for `O=C(CNC(=O)c1cccs1)OCC(=O)c1ccccc1` here?
Answer: inactive: -2.71%

Question: For `Cc1c(C(=O)NNC(=O)c2ccncc2)oc2ccc(Br)cc12`, which Potency is on record?
Answer: inconclusive: 0.562 µM [activator, single point]

Question: Which “activity change, negative = inhibition” value does the source give for `CC(C)OC(=O)Cn1cc(C#N)c2ccccc21` here?
Answer: inactive: -1.51%

Question: Which “activity change, negative = inhibition” value does the source give for `O=C(CS(=O)(=O)Cc1ccccc1)Nc1ccccn1` here?
Answer: inactive: -4.57%

Question: Which “activity change, negative = inhibition” value does the source give for `COc1ccc(N(CC(=O)N/N=C/c2ccc(-c3ccc([N+](=O)[O-])cc3)o2)S(=O)(=O)c2ccc(C)cc2)cc1` here?
Answer: inactive: -14.1%

Question: With `CC(C)CC(c1nnnn1CC1CCCO1)N1CCN(c2cccc(Cl)c2)CC1` (configuration not stated) as the compound, how does the Potency read?
Answer: inconclusive: 3.98 µM [inhibitor, partial curve, poor fit]

Question: For `O=C(CN(CCO)c1ccccc1)Nc1ccc(Cl)c(S(=O)(=O)N2CCOCC2)c1`, which “activity change, negative = inhibition” value is on record?
Answer: inactive: -2.69% [at 46.1 µM]

Question: With `OCCNCCCCOc1cccc(Br)c1` as the compound, how does the Potency read?
Answer: inconclusive: 6.51 µM [inhibitor, single point]

Question: Which Potency does the source give for `O=C(Nc1ccc(Br)cc1)C1CCN(C(=O)c2ccco2)CC1` here?
Answer: inconclusive: 2.82 µM [inhibitor, full curve]

Question: For `COCCOC(=O)C1=C(C)NC(=O)NC1c1cn(-c2ccccc2)nc1-c1ccccc1` (configuration not stated), which “activity change, negative = inhibition” value is on record?
Answer: inactive: -26.4% [at 46.1 µM]

Question: Which Potency does the source give for `O=C(CCCOc1ccccc1)N1CCN(c2ccccc2)CC1` here?
Answer: inconclusive: 17.8 µM [inhibitor, single point]

Question: With `COc1ccc(-c2cn3nc(N4CCCC(C(=O)Nc5cc(C)ccc5C)C4)sc3n2)cc1` (configuration not stated) as the compound, how does the “activity change, negative = inhibition” value read?
Answer: inactive: 37.9% [at 46.1 µM]

Question: Which Potency does the source give for `CSc1ccccc1NC(=O)Nc1ccc(Cl)cc1` here?
Answer: inconclusive: 7.3 µM [inhibitor, partial curve, poor fit]

Question: Which Potency does the source give for `CN(C)c1ccc(/C=C/c2nc3ccccc3s2)cc1` here?
Answer: active: 2.24 µM

Question: Which Potency does the source give for `O=C(NC1=NCCS1)c1sc2cc(F)ccc2c1Cl` here?
Answer: inconclusive: 2.24 µM [activator, full curve, poor fit]

Question: With `Cc1ccc(S(=O)(=O)Nc2cc(=O)[nH]c(SCc3ccccc3Cl)n2)cc1` as the compound, how does the Potency read?
Answer: inconclusive: 12.6 µM [inhibitor, partial curve]

Question: Which Potency does the source give for `CNc1nc(OCC#N)nc(N2CCCCC2)n1` here?
Answer: inconclusive: 7.08 µM [inhibitor, full curve, poor fit]

Question: For `CCOc1cc(/C=N/NC(=O)CN2CCOCC2)ccc1OCc1ccccc1`, which “activity change, negative = inhibition” value is on record?
Answer: inactive: 4.52%

Question: Which Potency does the source give for `COc1ccc(C(=O)Oc2ccc(C(C)=O)cc2)c(OC)c1` here?
Answer: inconclusive: 28.2 µM [activator, single point]

Question: For `CC(C)(C)n1nnnc1C(c1ccccn1)N(Cc1ccccc1)Cc1ccc(Cl)cc1` (configuration not stated), which Potency is on record?
Answer: inconclusive: 29.1 µM [inhibitor, single point]

Question: Which “activity change, negative = inhibition” value does the source give for `CC(C)[C@H](NS(=O)(=O)c1ccccc1)C(=O)OCC(=O)NC(=O)NC1CCCCC1` here?
Answer: inactive: -0.464% [at 46.1 µM]

Question: For `CCC(C)(C)n1nnnc1C(c1cccs1)N1CC=C(c2ccc(F)cc2)CC1` (configuration not stated), which Potency is on record?
Answer: inconclusive: 10.3 µM [inhibitor, partial curve, poor fit]

Question: With `Brc1ccc(-c2csc(/N=C/N3CCOCC3)n2)cc1` as the compound, how does the Potency read?
Answer: inconclusive: 1.12 µM [activator, full curve, poor fit]

Question: Which “activity change, negative = inhibition” value does the source give for `Cc1cccc(CC(C)NC(=O)c2oc3c(F)cccc3c2C)n1` (configuration not stated) here?
Answer: inactive: 7.81% [at 46.1 µM]

Question: Which Potency does the source give for `CCC(C(=O)OCC(=O)C1(O)CCC2C3CCC4=CC(=O)CCC4(C)C3C(O)CC21C)C(C)C` (configuration not stated) here?
Answer: inconclusive: 22.4 µM [inhibitor, single point]

Question: For `COc1cc(-c2cc(C(=O)N3CCCCCC3)c3ccccc3n2)cc(OC)c1OC`, which Potency is on record?
Answer: inconclusive: 17.8 µM [inhibitor, single point]

Question: Which Potency does the source give for `COc1ccc(-c2cn(-c3ccc(Cl)cc3)c3[n+]2CCCCC3)cc1` here?
Answer: inconclusive: 14.1 µM [inhibitor, single point]

Question: With `Cc1oc2ccccc2c1CNC(=O)N(C)C` as the compound, how does the “activity change, negative = inhibition” value read?
Answer: inactive: -4.86%

Question: For `CCOC(=O)C1(Cc2cccc(Cl)c2)CCCN(C(=O)c2cnn(CC)c2)C1` (configuration not stated), which “activity change, negative = inhibition” value is on record?
Answer: inactive: -2.63%

Question: Which Potency does the source give for `Fc1ccc(-n2ncc3c(NCCCn4ccnc4)ncnc32)cc1` here?
Answer: inconclusive: 35.5 µM [activator, single point]

Question: With `CC(=O)c1ccc(N2CCN(C(=O)C3CCCN(c4ncnc5c4nc4n5CCCCC4)C3)CC2)cc1` (configuration not stated) as the compound, how does the Potency read?
Answer: inconclusive: 7.94 µM [inhibitor, partial curve, poor fit]

Question: For `COc1ccc(OCC(=O)N2CCN(CC3CC4C=CC3C4)CC2)cc1` (configuration not stated), which “activity change, negative = inhibition” value is on record?
Answer: inactive: -33.1%

Question: For `CCC(Sc1nc2cc(OC)c(OC)cc2c(=O)n1CCc1ccc(OC)c(OC)c1)C(=O)NCCOC` (configuration not stated), which Potency is on record?
Answer: inconclusive: 6.31 µM [inhibitor, single point]

Question: With `COc1ccc2nc(N3C(=O)/C(=C/c4ccccc4)NC3=S)sc2c1` as the compound, how does the Potency read?
Answer: inconclusive: 6.31 µM [inhibitor, single point]

Question: With `O=C(CSc1nncs1)Nc1cccc2ccccc12` as the compound, how does the “activity change, negative = inhibition” value read?
Answer: inactive: 14.5%

Question: With `Oc1c(Br)cc(Cl)cc1C=Nc1ccc(N2CCOCC2)cc1` as the compound, how does the Potency read?
Answer: inconclusive: 8.91 µM [inhibitor, partial curve, poor fit]
